# Results published in EP0895778A2, “Cosmetic composition” (Ajinomoto Co., Inc., priority 1997, dated 1999).
# Tested on: activated sludge
# Test: BOD-based biodegradability test, OECD Chemicals Test Guideline 301C Modified MITI Test (I)
# Settings: for Biodegradability: single cultivation test / control test; for Biodegradability, Average: average of Cultivation Tests 1 to 3
smiles,measurement,setting,value
Nc1ccccc1 [Aniline],Biodegradability,7 days,65.4%
same,Biodegradability,"7 days, listed as aniline",higher than 40%
same,Biodegradability,14 days,72.4%
same,Biodegradability,21 days,75.7%
same,Biodegradability,28 days,77.7%
CCCCCCCCCCCCCCCCCC[N+](C)(C)C.[Cl-] [Stearyltrimethylammonium Chloride],"Biodegradability, Average",7 days,0.0%
same,Biodegradability,7 days,0.0%
same,"Biodegradability, Average",14 days,0.0%
same,Biodegradability,14 days,0.0%
same,"Biodegradability, Average",21 days,0.0%
same,Biodegradability,21 days,0.0%
same,"Biodegradability, Average",28 days,0.0%
same,Biodegradability,28 days,0.0%
